Laboratory results: PubChem BioAssay AID1671195 (Yale University, 2021)
In all, the deposit lists about 22,000 reagents; this is a random part of them. About 1,510 of all reagents (6.9%) were called active. 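Active includes knockdowns raising or lowering LDL uptake; positive z-scores mean more uptake, negative mean less.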

- Test: 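Regulators of LDL receptor activity judged by labelled LDL uptake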 (primary screen)
- Cell system: human Huh7 hepatoma cells
- Reagents: siRNA pool against human genes, 18 nM
- Timing: about 2 to 2.5 days of knockdown, then 8 h LDL uptake
- Treatment: DiI-labelled LDL at 30 µg/ml for 8 h, in lipoprotein-deficient serum medium
- Measurement: 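Fluorescent LDL signal imaged in cells, scaled to the plate median, robust z-score for each replicate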
- Reading the numbers: robust z-score: higher = more LDL uptake after knockdown
- Rule for the call: 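Active when two or more replicates show a robust z-score above 2 or below -2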

gene knocked down | robust z-score, replicate 1 | robust z-score, replicate 2 | robust z-score, replicate 3 | call
SLC39A2 | 0.203 | 0.0583 | 0.152 | inactive
NDFIP1 (Nedd4 family interacting protein 1) | 0.275 | 0.659 | 0.365 | inactive
RPUSD1 (RNA pseudouridine synthase domain containing 1) | -0.993 | -0.855 | -1.13 | inactive
ASCC1 (activating signal cointegrator 1 complex subunit 1) | -1.17 | -1.6 | -0.922 | inactive
ATPAF1 (ATP synthase mitochondrial F1 complex assembly factor 1) | -1.22 | -1.16 | -1.34 | inactive
DGKH (diacylglycerol kinase eta) | 0.463 | -0.0194 | 0.142 | inactive
MICALL1 (MICAL like 1) | -0.0853 | 0.251 | 0.555 | inactive
EEF2K (eukaryotic elongation factor 2 kinase) | -0.412 | -0.358 | 0.0266 | inactive
LOC387994 (retired record) | 0.818 | 0.877 | 0.939 | inactive
DNAAF19 (dynein axonemal assembly factor 19) | -0.571 | -0.231 | -0.25 | inactive
SIGIRR (single Ig and TIR domain containing) | -0.694 | -0.855 | -0.595 | inactive
LOC400751 (retired record) | 3.1 | 2.44 | 2.79 | active
ADCY6 (adenylate cyclase 6) | -1.82 | -1.31 | -1.82 | inactive
MAPK13 (mitogen-activated protein kinase 13) | -1.36 | -0.927 | -0.793 | inactive
NEXMIF (neurite extension and migration factor) | -0.254 | -0.299 | -0.273 | inactive
LOC440852 (retired record) | 0.0151 | -0.0658 | -0.173 | inactive
ATP10A (ATPase phospholipid transporting 10A (putative)) | -1.02 | -1.62 | -1.76 | inactive
CT75 (cancer/testis associated transcript 75) | 1.8 | 2.05 | 0.873 | inactive
ISCU (iron-sulfur cluster assembly enzyme) | 0.598 | 3.36 | 1.34 | inactive
VWA5B2 (von Willebrand factor A domain containing 5B2) | -0.0978 | -0.106 | 0.136 | inactive
DUSP19 (dual specificity phosphatase 19) | 0.149 | 0.668 | 0.118 | inactive
XCR1 (X-C motif chemokine receptor 1) | -0.742 | -1.45 | -1.22 | inactive
STAC (SH3 and cysteine rich domain) | -0.0505 | 0.443 | 2.04 | inactive
KCNJ10 (potassium inwardly rectifying channel subfamily J member 10) | -0.522 | -0.942 | -0.195 | inactive
ZNF282 (zinc finger protein 282) | -1.27 | -1.6 | -1.92 | inactive
DYRK1A | 0.905 | 0.463 | 0.2 | inactive
AGPAT4 (1-acylglycerol-3-phosphate O-acyltransferase 4) | -2.62 | -1.69 | -1.77 | inactive
NFYB (nuclear transcription factor Y subunit beta) | 0.396 | -0.0314 | 0.373 | inactive
PBLD (phenazine biosynthesis like protein domain containing) | 0.504 | 0.174 | 0.416 | inactive
MALRD1 (MAM and LDL receptor class A domain containing 1) | -1.71 | -1.93 | -1.83 | inactive
POLR2MP1 (POLR2M pseudogene 1) | -0.193 | 0.256 | 0.334 | inactive
SLC39A8 | -0.592 | -0.607 | -0.739 | inactive
PAG1 | -0.87 | -1.48 | -0.811 | inactive
RHBDL2 (rhomboid like 2) | -1.13 | -1.05 | -0.0148 | inactive
ERVMER61-1 (endogenous retrovirus group MER61 member 1) | -0.726 | -0.685 | -0.491 | inactive

Active calls, of those listed so far:
gene knocked down | robust z-score, replicate 1 | robust z-score, replicate 2 | robust z-score, replicate 3 | call
LOC400751 (retired record) | 3.1 | 2.44 | 2.79 | active

Next reagents follow.
gene knocked down | robust z-score, replicate 1 | robust z-score, replicate 2 | robust z-score, replicate 3 | call
TMEM130 (transmembrane protein 130) | -1.58 | -1.55 | -1.14 | inactive
OR5T3 (olfactory receptor family 5 subfamily T member 3) | 0.598 | 0.785 | 0.173 | inactive
CUTC (cutC copper transporter) | 0.861 | -0.131 | 0.733 | inactive
ZNF135 (zinc finger protein 135) | -1.51 | -1.37 | -1.17 | inactive
NKX2-6 (NK2 homeobox 6) | -1.47 | -1.55 | -1.24 | inactive
PAFAH1B3 | -1.93 | -0.157 | -0.098 | inactive
ZNF765 (zinc finger protein 765) | 0.553 | 0.472 | 0.761 | inactive
PPP3CA-DT (PPP3CA divergent transcript) | -1.85 | -1.6 | -0.836 | inactive
NLK (nemo like kinase) | 0.835 | -0.623 | -0.062 | inactive
LOC441004 (retired record) | -0.341 | -0.229 | -0.419 | inactive
NEUROD1 (neuronal differentiation 1) | 0.445 | 0.322 | 0.734 | inactive
ISOC1 (isochorismatase domain containing 1) | -0.765 | -0.322 | -2.42 | inactive
SETDB2 (SET domain bifurcated histone lysine methyltransferase 2) | -0.116 | -0.639 | -0.631 | inactive
SLC16A9 | -1.75 | -2.06 | -1.85 | inactive
LOC390508 (retired record) | 0.935 | 0.602 | 1.06 | inactive
WAC-AS1 (WAC antisense RNA 1) | -0.731 | -1.03 | -0.863 | inactive
DUSP29 (dual specificity phosphatase 29) | 1.33 | 1.73 | 1.84 | inactive
CSNK1A1L (casein kinase 1 alpha 1 like) | -0.199 | 0.00751 | -0.272 | inactive
FAM168A (family with sequence similarity 168 member A) | 0.405 | -0.847 | -0.272 | inactive
SASH3 (SAM and SH3 domain containing 3) | -2.06 | -2.09 | -2.13 | active
SH3PXD2B (SH3 and PX domains 2B) | 0.126 | -0.081 | -0.0367 | inactive
ADGRG3 (adhesion G protein-coupled receptor G3) | 0.965 | 2.81 | 2 | active
LINC01018 (long independently transcribed non-coding RNA 1018) | -0.279 | -0.275 | -0.24 | inactive
PWWP3B (PWWP domain containing 3B) | 0.428 | 1.81 | 2.21 | inactive
DNMBP (dynamin binding protein) | 1.32 | 0.332 | 2.85 | inactive
PCDHGA1 (protocadherin gamma subfamily A, 1) | -0.201 | 0.0399 | -0.0714 | inactive
ZKSCAN3 (zinc finger with KRAB and SCAN domains 3) | 1.95 | 1.36 | 1.97 | inactive
RUNX1T1 (RUNX1 partner transcriptional co-repressor 1) | 2.54 | 3.22 | 2.45 | active
SNAPC3 (small nuclear RNA activating complex polypeptide 3) | -0.908 | -1.31 | -0.187 | inactive
TEKT4 (tektin 4) | -1.31 | -2.09 | -1.14 | inactive
LOC388927 (retired record) | 1.04 | 1.06 | 1.06 | inactive
LOC388847 (retired record) | -0.734 | -0.883 | -0.622 | inactive
FAM110A (family with sequence similarity 110 member A) | 1.08 | 0.347 | 0.00746 | inactive
